Data: patent publication US20130197032A1, “[…] COMPOUNDS FOR THE TREATMENT OF NEUROLOGICAL AND […] DISORDERS” (A. CARLSSON RESEARCH AB, priority 2010, published 2013)

Protein sequences, listed by entry. Tags and fused reporters are not part of them.
UniProt P28223, whole entry: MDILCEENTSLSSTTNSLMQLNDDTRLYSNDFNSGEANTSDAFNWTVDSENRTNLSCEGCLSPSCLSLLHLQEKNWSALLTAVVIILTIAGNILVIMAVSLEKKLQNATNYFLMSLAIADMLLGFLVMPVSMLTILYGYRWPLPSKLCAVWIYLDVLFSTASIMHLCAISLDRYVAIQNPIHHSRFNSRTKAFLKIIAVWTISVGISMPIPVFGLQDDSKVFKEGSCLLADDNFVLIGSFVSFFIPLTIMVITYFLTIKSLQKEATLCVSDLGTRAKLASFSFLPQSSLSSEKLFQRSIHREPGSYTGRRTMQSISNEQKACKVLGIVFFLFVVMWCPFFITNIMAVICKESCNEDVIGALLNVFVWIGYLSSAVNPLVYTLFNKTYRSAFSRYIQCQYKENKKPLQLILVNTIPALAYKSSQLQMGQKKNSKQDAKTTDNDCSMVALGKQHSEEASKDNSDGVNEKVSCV

How the values were obtained:
[1] = target: T1, human 5-HT2A receptors (Homo sapiens, UniProt P28223); assay: BRET2 beta-arrestin-2 recruitment assay at 5-HT2A; format: cell-based; set-up: expressed in transfected cells; host or cells: HEK-293T
[2] = target: T1, human 5-HT2A receptors; assay: R-SAT functional assay at 5-HT2A; format: cell-based; set-up: expressed in transfected cells; host or cells: NIH-3T3; conditions: R-SAT pEC50

Q: With `CCCN[C@H]1CCc2nc(N)sc2C1` [Pramipexole, (6S)—N^6-propyl-4,5,6,7-tetrahydro-1,3-benzothiazole-2,6-diamine] as the compound, how does the EC50 [1] read?
A: Its EC50 is 20 µM.

Q: What about the EC50 [2] of the same compound?
A: Its EC50 is 1.26 µM.
